PubChem BioAssay AID602196 – INSERM | 2012
Purpose: 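Knock-downs that protect lung cancer cells from cisplatin or sensitise them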. Cells: human A549 lung cancer cells. Reagent: siRNA pair against human genes. Duration: 48 h transfection before cisplatin; time from cisplatin to read-out not stated. Challenge: cisplatin at a dose killing half of control-siRNA cells; exact dose and duration not given. Measurement: 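Shift in cisplatin death relative to control siRNA, from -50 (all cells die) to +50 (no cells die); siRNAs harmful on their own scored 0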. Reading the numbers: two-siRNA summed score (-2 to +2): higher = both siRNAs protect from cisplatin killing; -2 means both sensitise; mean protection from cisplatin (shift in death) and protection from cisplatin (shift in death), siRNA C: higher = protection from cisplatin killing. Active means: 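Each siRNA scores 0 if harmful alone by LDH or WST-1, otherwise +1 if it reduces and -1 if it increases cisplatin killing; a gene is active when both siRNAs agree (sum +2 or -2)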. Meaning of the calls: active = both siRNAs shift cisplatin killing the same way; inactive = no consistent shift, or siRNA harmful alone.
The whole screen tested about 23,000 reagents; below is a random part of them. 455 of all reagents (2%) were called active. 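Active includes both protection and sensitisation; some change values fall well beyond the stated -50 to +50 range.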 Further read-outs or replicates are left out here. No sequences are given here. Not given: the amount of reagent.

| gene | two-siRNA summed score (-2 to +2) | mean protection from cisplatin (shift in death) (%) | protection from cisplatin (shift in death), siRNA C (%) | Call |
| --- | --- | --- | --- | --- |
| CLRN3 | 0 | 6.7 | -1.6 | inactive |
| HYCC2 | 0 | 5.9 | 12.7 | inactive |
| FBXO44 | 0 | 4.1 | -6.2 | inactive |
| PRPF4 | 0 | 1.2 | 4.5 | inactive |
| DPH3 | 1 | 11.6 | 6.7 | inactive |
| AMZ1 | -1 | 1 | -14.8 | inactive |
| SPMIP8 | 0 | 28.7 | 15.7 | inactive |
| LOC158796 | 0 | 15.3 | 11.8 | inactive |
| ZNF195 | 0 | 9.5 | 6 | inactive |
| UHRF2 | 0 | 17.4 | 25.8 | inactive |
| AFAP1L2 | 0 | 5.5 | 4.1 | inactive |
| COPS8-DT | 0 | 8.2 | 12.8 | inactive |
| TTL | 0 | 6.5 | 7.7 | inactive |
| SPRING1 | 0 | 7.8 | 16.1 | inactive |
| FBP2 | 0 | 4.7 | 7.9 | inactive |
| SH3TC1 | -1 | -4.3 | -16.6 | inactive |
| DBNDD2 | 0 | 9.7 | 0.1 | inactive |
| CRYL1 | -1 | -2.2 | 11.8 | inactive |
| ZNF512B | 0 | -4.1 | 7.4 | inactive |
| RBM39 | 0 | 4.3 | 3.5 | inactive |
| MIR3150BHG | 0 | 10.4 | 14.6 | inactive |
| LOC440245 | 1 | 7 | 0.5 | inactive |
| LOC440701 | 1 | 6.1 | 8.2 | inactive |
